# US20200283478A1
# Results are given in words; binding and its absence hold for the method and conditions named. Binding calls can cover weak binding; strength is not graded here.
# Target: PCSK9Δhelix (human)
# Assay: phage spot ELISA
row,Binder,binding
1,TAFTSWEEYLDWVGSGALWNMRRVESVAFR [SEQ ID NO 319],binds
2,TAFTSWEEYLDWVGSGSETGLGTYYG [SEQ ID NO 350],binds
3,TAFTSWEEYLDWVGSGCYPLCRVG [SEQ ID NO 355],binds
4,TAFTSWEEYLDWVGSGNVRCYRDVPSCS [SEQ ID NO 329],binds
5,TAFTSWEEYLDWVGSGCYPLCRVL [SEQ ID NO 364],binds
6,TAFTSWEEYLDWVGSGKNNYAYLINMPRAPGI [SEQ ID NO 325],binds
7,TAFTSWEEYLDWVGSGCPFYDWRCSDFS [SEQ ID NO 328],binds
8,TAFTSWEEYLDWVGSGSPCRVGYTPC [SEQ ID NO 351],binds
9,TAFTSWEEYLDWVGSGMPWNLARIER [SEQ ID NO 318],binds
10,TAFTSWEEYLDWVGSGEDVVCYGRVDYMPLCV [SEQ ID NO 330],binds
11,TAFTSWEEYLDWVGSGCWTYLRGGCSVT [SEQ ID NO 339],binds
12,TAFTSWEEYLDWVGSGGCVKYRGSVSCQESKT [SEQ ID NO 323],binds
13,SGRNGSGYINRGIEIW [SEQ ID NO 380],binds
14,TAFTSWEEYLDWVGSGVPWNLARL [SEQ ID NO 314],binds
15,TAFTSWEEYLDWVGSGNPTYWLTRIS [SEQ ID NO 331],binds
16,TAFTSWEEYLDWVGSGKCDSHYIRGVVACH [SEQ ID NO 356],binds

row,Binder,binding
1,SGTPEMPAML [SEQ ID NO 374],binds
2,TAFTSWEEYLDWVGSGTRYADRGVMVYSLS [SEQ ID NO 321],binds
3,TAFTSWEEYLDWVGSGGEYLWNLKRLES [SEQ ID NO 320],binds
4,SGEHQFYSYRGVDVYR [SEQ ID NO 370],binds
5,TAFTSWEEYLDWVGSGVPWNLAKI [SEQ ID NO 315],binds
6,TAFTSWEEYLDWVGSGQISYLRNA [SEQ ID NO 342],binds
7,TAFTSWEEYLDWVGSGPRTYLRGLVD [SEQ ID NO 340],binds
8,SGHASKGMVLSG [SEQ ID NO 381],binds
9,TAFTSWEEYLDWVGSGACLNHFVSGNMIRC [SEQ ID NO 327],binds
10,TAFTSWEEYLDWVGSGGDCYPHCRLV [SEQ ID NO 359],binds
11,TAFTSWEEYLDWVGSGQELPNHRRLS [SEQ ID NO 346],binds
12,TAFTSWEEYLDWVGSGRCESKGWANTCVSE [SEQ ID NO 362],binds
13,SGMVYVDRGVRVFT [SEQ ID NO 368],binds
14,TAFTSWEEYLDWVGSGVCSDHYIGGKEVRC [SEQ ID NO 348],binds
15,TAFTSWEEYLDWVGSGGREMRSVIQM [SEQ ID NO 344],binds

# Results, then the binder that gave them:
row,binding,Binder
1,binds,TAFTSWEEYLDWVGSGRCGLAWCVVLVDQ [SEQ ID NO 365]
2,binds,TAFTSWEEYLDWVGSGKLWNLTRISS [SEQ ID NO 312]
3,binds,TAFTSWEEYLDWVGSGGHPLWNLSRI [SEQ ID NO 316]
4,binds,TAFTSWEEYLDWVGSGEHQFYSYRGVDVYR [SEQ ID NO 324]
5,binds,SGNALWNHDRLT [SEQ ID NO 379]
6,binds,TAFTSWEEYLDWVGSGNMCYLRGKMDCNIV [SEQ ID NO 347]
7,binds,TAFTSWEEYLDWVGSGKLWNLGRV [SEQ ID NO 306]
8,binds,TAFTSWEEYLDWVGSGMVYVDRGVRVFT [SEQ ID NO 322]
9,binds,SGAGKLDLSG [SEQ ID NO 377]
10,binds,TAFTSWEEYLDWVGSGGPWNLNRV [SEQ ID NO 309]
11,binds,TAFTSWEEYLDWVGSGNELWNINRLRSS [SEQ ID NO 317]
12,binds,SGSYRGAWSVFGGSTD [SEQ ID NO 372]
13,binds,TAFTSWEEYLDWVGSGSSTWHFVGGVRV [SEQ ID NO 354]
14,binds,TAFTSWEEYLDWVGSGCWNLKRIGSQGC [SEQ ID NO 6]
15,binds,TAFTSWEEYLDWVGSGVVLWNHSRIL [SEQ ID NO 313]
16,binds,TAFTSWEEYLDWVGSGRGGYELNIPR [SEQ ID NO 326]
17,binds,SGNCWSSLRGICENLG [SEQ ID NO 367]
18,binds,TAFTSWEEYLDWVGSGQTTYLRVSSS [SEQ ID NO 341]

row,binding,Binder
1,binds,TAFTSWEEYLDWVGSGDCLRYRVGSSCS [SEQ ID NO 360]
2,binds,SGACLNHFVSGNMIRC [SEQ ID NO 371]
3,binds,TAFTSWEEYLDWVGSGVLWNHSRI [SEQ ID NO 308]
4,binds,TAFTSWEEYLDWVGSGGCGYRYMCDMINGL [SEQ ID NO 358]
5,binds,SGLAPTVSDS [SEQ ID NO 375]
6,binds,SGDTRSQLSH [SEQ ID NO 376]
7,binds,SGPRTYLRGLVD [SEQ ID NO 366]
8,binds,TAFTSWEEYLDWVGSGNCARLYSHQRDYSQVC [SEQ ID NO 352]
9,binds,SGGCVKYRGSVSCQESKT [SEQ ID NO 369]
10,binds,TAFTSWEEYLDWVGSGNCWSSLRGICENLG [SEQ ID NO 307]
11,binds,SGCWTYLRGGCSVT [SEQ ID NO 373]
12,binds,TAFTSWEEYLDWVGSGGDCGYHYMCSMT [SEQ ID NO 345]
13,binds,TAFTSWEEYLDWVGSGCLDRSGGCYTREGYLS [SEQ ID NO 353]
14,binds,TAFTSWEEYLDWVGSGSCSWNVERIRGCSV [SEQ ID NO 311]
15,binds,SGGSIPWNLERITPPR [SEQ ID NO 382]
16,binds,TAFTSWEEYLDWVGSGRGEVYDKGGVIVHL [SEQ ID NO 343]
17,binds,TAFTSWEEYLDWVGSGPLLWNLQKVH [SEQ ID NO 310]
